Results from PMC10781698.
These are yes or no findings as the source states them, for the method shown. In cells and extracts the contact can be indirect. Some entries that bind do so weakly or less than the wild type. For some assays here: Where a sequence is shown, tags or fusion partners need not be part of it.

Columns and labels:
HA-CCDC88B = molecular target: T1, HA-CCDC88B (UniProt Q4QRL3); test: co-IP; HEK293T transiently co-transfected pairwise; RIPA lysis buffer (20 mM Tris-HCl pH 7.5, 200 mM NaCl, 1% NP-40); IP with anti-FLAG and blot with anti-HA, or IP with anti-CCDC88B anti-serum and blot with anti-FLAG
T1 sequence: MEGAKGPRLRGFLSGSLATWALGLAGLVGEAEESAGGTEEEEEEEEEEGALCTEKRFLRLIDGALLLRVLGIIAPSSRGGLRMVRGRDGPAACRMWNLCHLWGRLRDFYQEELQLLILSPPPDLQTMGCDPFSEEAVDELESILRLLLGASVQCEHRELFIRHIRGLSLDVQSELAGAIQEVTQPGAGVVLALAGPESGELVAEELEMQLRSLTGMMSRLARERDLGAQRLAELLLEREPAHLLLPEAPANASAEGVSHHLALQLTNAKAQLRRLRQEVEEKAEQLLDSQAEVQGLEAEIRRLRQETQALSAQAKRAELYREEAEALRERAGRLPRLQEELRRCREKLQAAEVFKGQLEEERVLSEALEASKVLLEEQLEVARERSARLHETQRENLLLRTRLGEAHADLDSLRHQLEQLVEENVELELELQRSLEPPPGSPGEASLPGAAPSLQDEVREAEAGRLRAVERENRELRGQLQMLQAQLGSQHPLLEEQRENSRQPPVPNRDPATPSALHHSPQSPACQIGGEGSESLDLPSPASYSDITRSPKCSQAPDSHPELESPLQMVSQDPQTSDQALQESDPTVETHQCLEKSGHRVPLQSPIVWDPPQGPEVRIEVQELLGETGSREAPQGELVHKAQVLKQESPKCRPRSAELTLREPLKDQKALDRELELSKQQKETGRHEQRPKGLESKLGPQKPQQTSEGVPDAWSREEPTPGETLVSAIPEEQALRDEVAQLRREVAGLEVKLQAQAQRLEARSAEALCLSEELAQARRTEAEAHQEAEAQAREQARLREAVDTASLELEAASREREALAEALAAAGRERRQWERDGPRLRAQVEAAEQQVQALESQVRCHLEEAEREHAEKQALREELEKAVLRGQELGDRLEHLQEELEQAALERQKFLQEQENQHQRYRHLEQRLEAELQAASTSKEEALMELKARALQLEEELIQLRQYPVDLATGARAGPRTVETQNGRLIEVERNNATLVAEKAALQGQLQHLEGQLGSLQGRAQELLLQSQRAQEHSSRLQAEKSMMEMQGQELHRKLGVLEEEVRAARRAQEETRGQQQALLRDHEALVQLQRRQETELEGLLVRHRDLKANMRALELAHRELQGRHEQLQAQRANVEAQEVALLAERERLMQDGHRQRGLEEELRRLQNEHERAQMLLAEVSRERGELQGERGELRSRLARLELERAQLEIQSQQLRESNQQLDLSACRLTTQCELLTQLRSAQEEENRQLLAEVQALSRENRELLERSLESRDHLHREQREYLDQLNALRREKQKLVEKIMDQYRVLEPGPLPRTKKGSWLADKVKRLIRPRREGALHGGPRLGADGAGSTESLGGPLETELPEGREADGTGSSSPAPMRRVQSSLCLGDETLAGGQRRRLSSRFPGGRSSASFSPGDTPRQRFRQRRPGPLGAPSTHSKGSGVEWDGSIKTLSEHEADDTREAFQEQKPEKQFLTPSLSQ

[1] = molecular target: T2, CCDC88B (mouse (endogenous in thymus, BI-141 T cells and BMDCs)) (UniProt Q4QRL3); test: co-IP; BMDC lysates (20 mM HEPES pH 7.4, 300 mM NaCl, 1% NP-40); IP overnight with anti-CCDC88B anti-serum, protein A/G magnetic particles; blot for RASAL3 or ARHGEF2; Ccdc88b^Mut BMDCs as control
T2 sequence: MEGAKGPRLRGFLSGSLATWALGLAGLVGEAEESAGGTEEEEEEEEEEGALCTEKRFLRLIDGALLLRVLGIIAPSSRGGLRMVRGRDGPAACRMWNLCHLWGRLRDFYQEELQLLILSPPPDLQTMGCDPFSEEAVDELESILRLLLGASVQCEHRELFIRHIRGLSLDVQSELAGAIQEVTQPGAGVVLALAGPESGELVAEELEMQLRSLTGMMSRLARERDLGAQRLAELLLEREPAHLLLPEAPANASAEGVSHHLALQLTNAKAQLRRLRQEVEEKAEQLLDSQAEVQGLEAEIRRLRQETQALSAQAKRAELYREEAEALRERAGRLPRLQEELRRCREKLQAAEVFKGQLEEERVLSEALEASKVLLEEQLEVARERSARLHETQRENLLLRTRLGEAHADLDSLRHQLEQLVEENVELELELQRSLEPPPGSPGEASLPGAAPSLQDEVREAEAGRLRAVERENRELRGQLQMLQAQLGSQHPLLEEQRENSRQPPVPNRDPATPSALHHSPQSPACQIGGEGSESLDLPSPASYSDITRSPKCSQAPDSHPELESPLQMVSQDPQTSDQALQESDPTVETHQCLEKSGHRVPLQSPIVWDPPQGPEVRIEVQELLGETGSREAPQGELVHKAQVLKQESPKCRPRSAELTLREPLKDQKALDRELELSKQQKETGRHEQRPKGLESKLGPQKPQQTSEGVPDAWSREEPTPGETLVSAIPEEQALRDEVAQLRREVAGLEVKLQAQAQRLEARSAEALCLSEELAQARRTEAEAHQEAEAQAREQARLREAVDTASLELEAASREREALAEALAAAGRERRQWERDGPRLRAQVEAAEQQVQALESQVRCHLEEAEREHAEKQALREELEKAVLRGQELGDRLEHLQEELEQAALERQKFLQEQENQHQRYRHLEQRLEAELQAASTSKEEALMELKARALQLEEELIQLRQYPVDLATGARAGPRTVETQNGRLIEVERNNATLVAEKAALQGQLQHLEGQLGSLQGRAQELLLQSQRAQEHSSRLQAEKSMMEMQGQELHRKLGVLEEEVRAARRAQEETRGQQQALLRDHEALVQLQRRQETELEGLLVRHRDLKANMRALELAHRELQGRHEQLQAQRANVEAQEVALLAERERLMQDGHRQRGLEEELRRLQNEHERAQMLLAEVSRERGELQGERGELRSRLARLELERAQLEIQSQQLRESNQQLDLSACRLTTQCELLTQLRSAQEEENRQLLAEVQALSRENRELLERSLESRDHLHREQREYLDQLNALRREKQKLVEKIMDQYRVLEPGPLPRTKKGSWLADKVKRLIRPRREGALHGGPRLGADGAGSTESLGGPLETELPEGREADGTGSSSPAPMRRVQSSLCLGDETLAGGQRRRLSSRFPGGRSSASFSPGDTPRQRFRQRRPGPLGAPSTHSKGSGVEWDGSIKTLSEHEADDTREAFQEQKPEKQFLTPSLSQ

| Binder | binding (HA-CCDC88B) | binding [1] |
| --- | --- | --- |
| ARHGEF2-FLAG (protein, UniProt Q60875 1-985) MSRIESLTRARIDRSKEQATKTREKEKMKEAKDARYTNGHLFTTISVSGMTMCYACNKSITAKEALICPTCNVTIHNRCKDTLANCTKVKQKQQKAALLRNNTALQSVSLRSKTTTRERPTSAIYPSDSFRQSLLGSRRGLSSLSLAKSVSTTNIAGHFNDESPLGLRQILSQSTDSLNMRNRTLSVESLIDEGVEVFYNELMSDFEMDEKDFEADSWSLAVDSSFLQQHKKEVMKKQDVIYELIQTELHHVRTLKIMTRLFRTGMLEELQMEPEVVQGLFPCVDELSDIHTRFLNQLLERRRQALCPGSTRNFVIHRLGDLLISQFSGSNAEQMRKTYSEFCSRHTKALKLYKELYARDKRFQQFIRKMTRSAVLKRHGVQECILLVTQRITKYPVLINRILQNSHGVEEEYQDLASALGLVKELLSNVDQDVHELEKEARLQEIYNRMDPRAQTPVPGKGPFGRDELLRRKLIHEGCLLWKTATGRFKDVLLLLMTDVLVFLQEKDQKYIFTSLDKPSVVSLQNLIVRDIANQAKGMFLISSGPPEMYEVHAASRDDRTTWIRVIQQSVRLCPSREDFPLIETEDKAYLRRIKTKLQQKNQALVELLQKNVELFAEMVHFQALKAGFVGMPPPALPRGLFRLESFESLRGERLLKDALREVEGLKDLLLGPCVDLPMTSREPALPLDSDSGSCPGVTANGEARTFNGSIELCRADSDSSQKDRNGNQLRSPQEEVLQPLINLYGLLHGLQAVVVQQERLMEALFPEGPERWEKLSRANSRDGEAGRAAVASVTPEKQATELALLQRQHTLLQEELRRCQRLGEERATEAGSLEARLRESEQARALLEREAEEIRRQLAALGQNEPLPAEAPWARRPLDPRRRSLPAGDALYLSFNPPQPSRGHDRLDLPVTVRSLHRPFDDREAQELGSPEDRLQDSSDPDTGSEEEVSSRLSPPHSPRDFTRMQDIPEETESRDGEPTASES | binds |  |
| RAS Protein Activator Like 3 (RASAL3) (protein, UniProt Q8C2K5 1-1041) MKPECGQTMFRTFWSRSRDSSAMDPPLQSEEDSQTQPSLPSPLTSYRWHTGGSGEKAAGGFRWGRFAGWGRALSHQEPMVNSQPAPRSLFRRVLSAPPKESRSNRLRFSKTLWGRHKNVAPLEPKPNPKAPEPELELVADPDLPVAQIPEPPTPDMPVWNIDGFTLLEGKLVMLGEEEGPRQIRVGSASSENSMQAALGNLKDAVRTPGKTEPEAAGSNQVHNVRKLLKRLKEKKRAKSELGAYTPRDGPPSALGSRESLATLSELDLGAERDVRVWPLHPSLLGEPYCFQVTWAGGSLCFSCRSSAERDRWIEDLRRQFQPSQDNVERQEMWLTVWVHEAKGLPRATVPGVRAELWLDGALLARTAPRAGPGQLFWAERFHFEALPPARRLSLRLRSAGPAGATVGRVVLELDEVSIPRAPAAGLERWFPVLGAPAGAVLRARIRVRCLRVLPSERYKELAEFLTFHYARLCGALEPALSAQAKEELAAAMVRVLRATGRAQALVTDLGTAELARCGGREALLFRENTLATKAIDEYMKLVAQEYLQDTLGQVVRCLCASTEDCEVDPSKCPTPELPKHQARLRDSCEEVFENIIHSYNCFPAELGSVFSSWREACKARGSEALGPRLVCASLFLRLLCPAILAPSLFGLAPEHPAPGPARTLTLIAKVIQNLANCAPFGEKEAYMAFMNSFLEDHGPAMQHFLDQVATVDADTTPSGYQGSGDLALQLAVLHVQLCTIFAELDQKTQDSLEPLPTILRAIEEGRPVPVSVPMRLPRISTQVQSSFFSGEKPGFLAPRDLPKHTPLISKSQSLRSFQGAGSWASRRPDEERPQRRPRPVLRTQSVPARRPTHRRPSAGSKPRPKGSLRMGPAPCGRAWTRASASLPRKPSVPWQRQMDQPGDRYQTTGTHRPVGKLAEIQCEVAIFREAQKALSLLVESLSTQVQALKEQQEHFRCQLQDLYSRLGAGISKLDSKGGLPSNGSHRLKSLEQRLTEMECSQDQLRDSLQSLQLLSKTPGSRSQPLPLKAPCVNGADLSMGT |  | binds |
